# Measurements reported in PubChem BioAssay AID493246 (Drosophila RNAi Screening Center, 2011).
# Screen: 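Identify essential fly genes by loss of cell viability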 (primary screen)
# System: Drosophila Kc and S2R+ cells
# Knock-down reagent: long dsRNA against Drosophila genes
# Measured: 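Raw, unnormalised count of remaining cells in each well; per-plate z-scores of cell number underlie the calls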
# Direction: Kc cell number and S2R+ cell number: higher = more cells remaining
# Active means: 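Active when the per-plate z-score of cell number is 3 or more in the direction of fewer cells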
# The deposit covers about 21,000 reagents; this is a random part of those that have a named target and a result. In the full data, 429 (2%) got an active call. 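Values are raw and not normalised between plates; calls rest on per-plate z-scores that were not deposited.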 Entries without a mark were called inactive. Reagents against one gene are numbered here. A plus sign joins genes that one reagent is predicted to hit. Reagent sequences are not shown. Not given: the amount of reagent, the time to read-out.
"Kc cell number, rep 1","Kc cell number, rep 2","S2R+ cell number, rep 1","S2R+ cell number, rep 2",Gene,dsRNA no.
1.54e6,1.57e6,1.20e6,1.34e6,Coa7 (GeneID 3355158),1
1.43e6,1.55e6,1.13e6,1.24e6,RIC-3 (GeneID 37384),1
1.41e6,1.58e6,1.34e6,2.37e5,RIC-3 (GeneID 37384),2
1.41e6,1.57e6,1.23e6,1.28e6,Mov10 (GeneID 36922),1
1.58e6,1.65e6,1.39e6,1.51e6,CG3788 (GeneID 37644),1
1.12e6,1.18e6,7.45e5,8.92e5,RpL31 (GeneID 35988),1
1.39e6,1.74e6,1.12e6,1.18e6,CG13311 (GeneID 39008),1
1.58e6,1.77e6,1.21e6,1.31e6,Cftr (GeneID 42928),1
1.29e6,1.31e6,1.32e6,1.28e6,atms (GeneID 40593),1
1.46e6,1.54e6,1.14e6,9.19e5,kri (GeneID 38655),1
1.50e6,1.53e6,1.28e6,1.35e6,thetaTry (GeneID 36218),1
1.25e6,1.30e6,9.86e5,9.29e5,CG9886 (GeneID 33431),1
1.43e6,1.49e6,1.16e6,1.20e6,CG12024 (GeneID 38243),1
4.61e5,,7.36e5,,dco (GeneID 43673),1
1.52e6,1.50e6,8.69e5,1.02e6,MFS18 (GeneID 33650),1
1.50e6,1.58e6,1.14e6,1.27e6,CG5623 (GeneID 41904),1
1.38e6,1.47e6,1.15e6,1.30e6,Cyt-c-p (GeneID 34996),1
1.38e6,1.28e6,1.22e6,1.27e6,vsg (GeneID 39137),1
1.39e6,1.54e6,1.21e6,1.26e6,CG18744 (GeneID 59140),1
1.43e6,1.51e6,1.19e6,1.33e6,CG3663 (GeneID 37944),1
1.61e6,1.52e6,1.11e6,1.22e6,CG1636 (GeneID 31766),1
1.32e6,1.39e6,1.24e6,1.22e6,Klp68D (GeneID 39332),1
1.52e6,1.58e6,1.11e6,1.23e6,robo2 (GeneID 44522),1
1.55e6,1.57e6,1.07e6,1.26e6,robo2 (GeneID 44522),2
1.56e6,1.52e6,1.10e6,1.25e6,robo2 (GeneID 44522),3
1.26e6,1.33e6,1.08e6,1.06e6,robo2 (GeneID 44522),4
1.32e6,1.33e6,1.01e6,1.09e6,Vps53 (GeneID 33640),1
1.13e6,1.43e6,1.05e6,1.19e6,Nup107 (GeneID 34481),1
1.36e6,1.39e6,1.16e6,1.11e6,Pex6 + Hao,1
1.92e6,1.77e6,1.40e6,1.73e6,Pex6 + Hao,2
7.55e5,,6.94e5,,Cbp80 (GeneID 44409),1
1.48e6,1.53e6,1.22e6,1.26e6,CG6933 (GeneID 40214),1
1.19e6,1.33e6,7.41e5,6.58e5,Liprin-alpha (GeneID 249072),1
1.45e6,1.54e6,1.07e6,1.22e6,CG15358 (GeneID 33366),1
1.52e6,1.49e6,9.71e5,1.15e6,CG16903 (GeneID 31178),1
1.72e6,1.72e6,1.24e6,1.51e6,GNBP-like3 (GeneID 37313),1
5.88e5,,7.68e5,,CG11674 (GeneID 32374),1
1.61e6,1.49e6,1.15e6,1.31e6,CG3386 (GeneID 38081),1
1.14e6 (active),1.38e6,5.64e5,6.53e5,DIP-alpha (GeneID 31322),1
1.47e6,1.60e6,1.33e6,1.42e6,7B2 (GeneID 40644),1
1.56e6,1.62e6,1.30e6,1.45e6,nes (GeneID 40093),1
4.91e5,,7.77e5,,CstF50 (GeneID 43734),1
1.34e6,1.46e6,1.21e6,1.29e6,CG31729 (GeneID 34736),1
1.53e6,1.66e6,1.22e6,1.43e6,CG31729 (GeneID 34736),2
1.39e6,1.42e6,1.19e6,1.25e6,CG42307 + mus312,1
1.60e6,1.50e6,1.06e6,1.12e6,CG7213 (GeneID 38924),1
1.03e6,1.34e6,1.08e6,1.05e6,tRNA:Leu-CAA-2-3 (GeneID 3772601),1
1.74e6,1.73e6,1.33e6,3.47e5,Tep4 (GeneID 35248),1
1.49e6,1.51e6,1.09e6,1.25e6,CG13148 (GeneID 36398),1
1.29e6,1.31e6,1.03e6,1.31e6,CR15821 (GeneID 3771832),1
1.28e6 (active),1.26e6,5.86e5,6.54e5,CG33110 (GeneID 42659),1
1.74e6,1.66e6,9.87e5,1.17e6,CG33110 (GeneID 42659),2
1.48e6,1.52e6,1.19e6,1.37e6,CG18477 + CG31780,1
1.44e6,1.46e6,1.18e6,1.26e6,Brd (GeneID 39620),1
1.30e6,1.35e6,1.07e6,1.03e6,Iris (GeneID 33290),1
1.71e6,1.80e6,1.24e6,1.35e6,CG12551 (retired record) (GeneID 35518),1
1.63e6,1.64e6,1.26e6,1.38e6,CG12551 (retired record) (GeneID 35518),2
1.32e6,1.36e6,1.01e6,1.20e6,CG9853 (GeneID 40557),1
1.50e6,1.69e6,1.24e6,1.29e6,CG13310 (GeneID 39007),1

3 successive entries already listed, for reference:
"Kc cell number, rep 1","Kc cell number, rep 2","S2R+ cell number, rep 1","S2R+ cell number, rep 2",Gene,dsRNA no.
1.14e6 (active),1.38e6,5.64e5,6.53e5,DIP-alpha (GeneID 31322),1
1.47e6,1.60e6,1.33e6,1.42e6,7B2 (GeneID 40644),1
1.56e6,1.62e6,1.30e6,1.45e6,nes (GeneID 40093),1
